The list is a part of this screen's results and no random one: it is rich in T/C values a quarter to a half above the control, in often repeated tests (any T/C) and in doses without a T/C. Further doses and runs are listed elsewhere. T/C: endpoint of the treated group in % of that of the vehicle group. Some entries give survivors of the animals treated and no T/C: the source holds a T/C of zero for them, seemingly a mark for toxic or unscored doses. Some survivor counts are full or nearly so, which does not show that the dose was tolerated: the source hardly ever lists a survival T/C far under the control, and the zero likely stands for such cases as well. Counts of survivors are from the toxicity check (mostly the fifth day) where no day follows; animals may have died later. Schedules are NCI's codes, taken here to give the interval after Q, in days (D) or hours (H), and the number of doses after X. Where survival is the endpoint, the PubChem record calls one and a half times the control and up active, and a quarter to a half above the control has no call in these data; cut-offs in other NCI protocols can differ. Brackets with × count equal records among those shown. Some doses were run more than once; their values stand side by side, smallest first.
Tested on: L1210 leukemia ip in BDF1 mice, survival T/C
Assay: NCI In Vivo Anticancer Drug Screen. Data for tumor model L1210 Leukemia (intraperitoneal) in B6D2F1 (BDF1) mice
Conditions: T/C endpoint: median survival time, vehicle: saline, higher T/C = longer survival

O=P1(N(CCCl)CCCl)NCCCO1 (centres undefined)
T/C (dose: 65.0 mg/kg/injection, schedule: Q07DX003 (ip), evaluated on day 32): 130 and 133 % of control
T/C (dose: 65.0 mg/kg/injection, schedule: Q07DX003 (ip), evaluated on day 46): 136 % of control
T/C (dose: 65.0 mg/kg/injection, schedule: Q07DX004 (ip), evaluated on day 7): 162 and 166 % of control
T/C (dose: 65.0 mg/kg/injection, schedule: Q07DX004 (ip), evaluated on day 60): 166 % of control (2×)
T/C (dose: 70.0 mg/kg/injection, schedule: Q01DX001 (ip), evaluated on day 5): 134 % of control
T/C (dose: 70.0 mg/kg/injection, schedule: Q01DX001 (ip), evaluated on day 7): 138 % of control
T/C (dose: 70.0 mg/kg/injection, schedule: Q01DX001 (sc)): 146 % of control
T/C (dose: 75.0 mg/kg/injection, schedule: Q01DX001 (ip)): 147 % of control
T/C (dose: 75.0 mg/kg/injection, schedule: Q07DX003 (ip), evaluated on day 7): 145, 150, 160 % of control
T/C (dose: 75.0 mg/kg/injection, schedule: Q07DX003 (ip), evaluated on day 34): 145 % of control
T/C (dose: 75.0 mg/kg/injection, schedule: Q07DX003 (ip), evaluated on day 63): 150 and 152 % of control
T/C (dose: 80.0 mg/kg/injection, schedule: Q01DX001 (ip), evaluated on day 8): 142 % of control
T/C (dose: 80.0 mg/kg/injection, schedule: Q01DX001 (ip), evaluated on day 30): 142 % of control
survivor count (dose: 80.0 mg/kg/injection, schedule: Q01DX005 (ip)): 5 of 6
T/C (dose: 80.0 mg/kg/injection, schedule: Q01DX009 (ip), evaluated on day 25): 115 % of control
T/C (dose: 80.0 mg/kg/injection, schedule: Q01DX009 (ip), evaluated on day 30): 100, 132, 146 % of control
T/C (dose: 100.0 mg/kg/injection, schedule: Q01DX001 (ip), evaluated on day 7): 126, 132, 140, 145, 148 (2×), 162 (2×), 164, 165, 186 % of control
T/C (dose: 100.0 mg/kg/injection, schedule: Q01DX001 (ip), evaluated on day 26): 126 % of control
T/C (dose: 100.0 mg/kg/injection, schedule: Q01DX001 (ip), evaluated on day 30): 138, 146, 155 % of control
T/C (dose: 100.0 mg/kg/injection, schedule: Q01DX001 (ip), evaluated on day 35): 164 % of control
T/C (dose: 100.0 mg/kg/injection, schedule: Q01DX001 (ip), evaluated on day 43): 130 % of control
T/C (dose: 100.0 mg/kg/injection, schedule: Q01DX001 (ip), evaluated on day 44): 160 % of control
T/C (dose: 100.0 mg/kg/injection, schedule: Q01DX001 (ip), evaluated on day 45): 140 % of control
T/C (dose: 100.0 mg/kg/injection, schedule: Q01DX001 (ip), evaluated on day 62): 186 % of control
T/C (dose: 100.0 mg/kg/injection, schedule: Q01DX001 (ip), evaluated on day 63): 140 and 165 % of control
T/C (dose: 100.0 mg/kg/injection, schedule: Q01DX001 (ip), evaluated on day 64): 159 % of control
T/C (dose: 100.0 mg/kg/injection, schedule: Q08DX002 (ip), evaluated on day 7): 143, 160, 221 % of control
T/C (dose: 100.0 mg/kg/injection, schedule: Q08DX002 (ip), evaluated on day 43): 150 % of control
T/C (dose: 100.0 mg/kg/injection, schedule: Q08DX002 (ip), evaluated on day 44): 205 % of control
T/C (dose: 100.0 mg/kg/injection, schedule: Q08DX002 (ip), evaluated on day 46): 144 % of control
T/C (dose: 100.0 mg/kg/injection, schedule: Q08DX003 (ip), evaluated on day 7): 144 % of control
T/C (dose: 100.0 mg/kg/injection, schedule: Q08DX003 (ip), evaluated on day 45): 140 % of control
T/C (dose: 108.0 mg/kg/injection, schedule: Q01DX001 (ip), evaluated on day 5): 137, 155, 197 % of control
T/C (dose: 108.0 mg/kg/injection, schedule: Q01DX001 (ip), evaluated on day 7): 150, 156, 159, 187 % of control
T/C (dose: 108.0 mg/kg/injection, schedule: Q01DX001 (ip), evaluated on day 36): 185 % of control
T/C (dose: 108.0 mg/kg/injection, schedule: Q01DX001 (ip), evaluated on day 40): 131 % of control
T/C (dose: 108.0 mg/kg/injection, schedule: Q01DX001 (ip), evaluated on day 45): 155 % of control
T/C (dose: 108.0 mg/kg/injection, schedule: Q01DX001 (ip), evaluated on day 46): 152 % of control
T/C (dose: 108.0 mg/kg/injection, schedule: Q01DX001 (ip), evaluated on day 60): 162 % of control
T/C (dose: 108.0 mg/kg/injection, schedule: Q01DX001 (ip), evaluated on day 62): 155 % of control
T/C (dose: 108.0 mg/kg/injection, schedule: Q01DX001 (ip), evaluated on day 69): 166 % of control
T/C (dose: 108.0 mg/kg/injection, schedule: Q01DX001 (ip), evaluated on day 90): 161 % of control
T/C (dose: 108.0 mg/kg/injection, schedule: Q07DX003 (ip), evaluated on day 7): 183, 184, 204 % of control
T/C (dose: 108.0 mg/kg/injection, schedule: Q07DX003 (ip), evaluated on day 32): 183 and 184 % of control
